# Test system: 3-oxo-5β-steroidΔ^4 -dehydrogenase
# Assay: Quantitative analysis of 3-oxo-5β-steroid in serum: reaction with Δ^4 DH and NTB, optical density at 540 nm
# Type: biochemical, Pseudomonas testosteroni
# Conditions: pH 8, 37° C., 10 min
SMILES,"Optical Density at 540 nm (Table 2, 5β-androstan-3,17-dione concentration 20 (mole/l as printed) in serum)","Optical Density at 540 nm (Table 2, 5β-androstan-3,17-dione concentration 40 (mole/l as printed) in serum)","Optical Density at 540 nm (Table 2, 5β-androstan-3,17-dione concentration 60 (mole/l as printed) in serum)","Optical Density at 540 nm (Table 2, 5β-androstan-3,17-dione concentration 80 (mole/l as printed) in serum)","Optical Density at 540 nm (Table 2, 5β-androstan-3,17-dione concentration 100 (mole/l as printed) in serum)","Optical Density at 540 nm (Table 2, 5β-androstan-3,17-dione concentration 120 (mole/l as printed) in serum)","Optical Density at 540 nm (Table 1, dehydrochoric acid concentration 20 (mole/l as printed) in serum)","Optical Density at 540 nm (Table 1, dehydrochoric acid concentration 40 (mole/l as printed) in serum)","Optical Density at 540 nm (Table 1, dehydrochoric acid concentration 60 (mole/l as printed) in serum)","Optical Density at 540 nm (Table 1, dehydrochoric acid concentration 80 (mole/l as printed) in serum)","Optical Density at 540 nm (Table 1, dehydrochoric acid concentration 100 (mole/l as printed) in serum)","Optical Density at 540 nm (Table 1, dehydrochoric acid concentration 140 (mole/l as printed) in serum)","Optical Density at 540 nm (Table 1, dehydrochoric acid concentration 180 (mole/l as printed) in serum)"
"C[C@]12CCC(=O)C[C@H]1CC[C@@H]1[C@@H]2CC[C@]2(C)C(=O)CC[C@@H]12 [5β-androstan-3,17-dione]",0.065,0.132,0.201,0.270,0.332,0.403,–,–,–,–,–,–,–
"C[C@H](CCC(=O)O)[C@H]1CC[C@H]2[C@@H]3C(=O)C[C@@H]4CC(=O)CC[C@]4(C)[C@H]3CC(=O)[C@]12C [Dehydrochoric Acid, dehydrochoric acid]",–,–,–,–,–,–,0.022,0.046,0.077,0.101,0.122,0.172,0.226

# Source: patent US5085989A, “Method and reagent for quantitative analysis of 3-oxo-5β-steroid” (Daiichi Pure Chemicals Co., Ltd., priority 1986, dated 1992)
